Paper PMC11518377
No constants are given. Whether binding was seen depends on the method and setting. Some binding calls cover weakened binding; strength is not graded here.

T1: Bfa1 (S. cerevisiae (budding yeast)) (UniProt P47113)
T1 sequence: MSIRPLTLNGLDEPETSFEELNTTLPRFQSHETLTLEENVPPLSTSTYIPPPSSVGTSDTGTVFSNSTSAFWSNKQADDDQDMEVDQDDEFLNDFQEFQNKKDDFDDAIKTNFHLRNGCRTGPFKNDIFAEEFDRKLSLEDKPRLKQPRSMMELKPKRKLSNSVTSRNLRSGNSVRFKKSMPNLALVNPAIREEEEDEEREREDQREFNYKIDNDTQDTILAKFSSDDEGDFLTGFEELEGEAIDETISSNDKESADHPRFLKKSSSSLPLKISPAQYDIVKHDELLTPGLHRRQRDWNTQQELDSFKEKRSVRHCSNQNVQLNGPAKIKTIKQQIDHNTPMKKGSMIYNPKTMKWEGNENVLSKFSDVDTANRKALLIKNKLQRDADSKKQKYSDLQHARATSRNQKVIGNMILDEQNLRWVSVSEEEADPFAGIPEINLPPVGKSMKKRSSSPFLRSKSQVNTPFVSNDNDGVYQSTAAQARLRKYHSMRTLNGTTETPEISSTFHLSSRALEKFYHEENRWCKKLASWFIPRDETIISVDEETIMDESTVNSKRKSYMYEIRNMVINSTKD

T2: Bud14-F379A (S. cerevisiae (budding yeast)) (UniProt P27637)
T2 sequence: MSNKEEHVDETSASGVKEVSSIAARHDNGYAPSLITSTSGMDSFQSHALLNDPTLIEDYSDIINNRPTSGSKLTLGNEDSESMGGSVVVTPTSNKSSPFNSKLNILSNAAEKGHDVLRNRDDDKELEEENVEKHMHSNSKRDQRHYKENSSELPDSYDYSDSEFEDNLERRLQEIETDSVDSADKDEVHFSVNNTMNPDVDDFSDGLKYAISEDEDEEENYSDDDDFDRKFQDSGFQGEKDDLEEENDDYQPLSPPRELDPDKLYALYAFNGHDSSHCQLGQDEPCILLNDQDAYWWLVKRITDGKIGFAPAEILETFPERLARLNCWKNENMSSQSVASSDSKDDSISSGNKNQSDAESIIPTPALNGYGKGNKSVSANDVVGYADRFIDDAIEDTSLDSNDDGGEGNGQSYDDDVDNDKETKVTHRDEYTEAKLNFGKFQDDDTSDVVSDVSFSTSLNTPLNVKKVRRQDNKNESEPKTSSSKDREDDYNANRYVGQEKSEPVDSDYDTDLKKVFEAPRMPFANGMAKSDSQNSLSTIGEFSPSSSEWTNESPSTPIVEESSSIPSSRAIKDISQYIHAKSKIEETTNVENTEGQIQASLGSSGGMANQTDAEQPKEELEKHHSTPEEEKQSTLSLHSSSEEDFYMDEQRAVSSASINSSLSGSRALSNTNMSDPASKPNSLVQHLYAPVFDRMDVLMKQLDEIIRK

T3: Bud14 (S. cerevisiae (budding yeast)) (UniProt P27637)
T3 sequence: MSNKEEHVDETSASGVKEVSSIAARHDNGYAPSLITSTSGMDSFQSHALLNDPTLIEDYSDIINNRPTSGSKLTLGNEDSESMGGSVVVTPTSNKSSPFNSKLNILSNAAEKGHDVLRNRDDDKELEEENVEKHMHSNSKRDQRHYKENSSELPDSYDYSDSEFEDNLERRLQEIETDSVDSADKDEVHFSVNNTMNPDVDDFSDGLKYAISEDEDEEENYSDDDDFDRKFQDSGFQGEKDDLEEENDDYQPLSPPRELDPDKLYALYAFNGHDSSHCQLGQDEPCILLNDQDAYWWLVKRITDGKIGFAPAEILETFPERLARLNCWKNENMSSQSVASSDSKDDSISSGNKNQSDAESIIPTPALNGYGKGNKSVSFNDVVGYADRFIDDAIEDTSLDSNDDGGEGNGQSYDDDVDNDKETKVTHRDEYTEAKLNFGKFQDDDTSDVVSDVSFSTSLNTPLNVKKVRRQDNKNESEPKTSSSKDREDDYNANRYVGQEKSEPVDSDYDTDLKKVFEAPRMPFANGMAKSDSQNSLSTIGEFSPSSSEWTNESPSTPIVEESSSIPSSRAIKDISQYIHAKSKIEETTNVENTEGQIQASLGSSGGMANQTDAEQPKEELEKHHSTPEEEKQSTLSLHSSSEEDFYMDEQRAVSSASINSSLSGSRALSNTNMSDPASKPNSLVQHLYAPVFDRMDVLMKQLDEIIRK


Assays:
Experiment in all cases: two-hybrid; LexA DNA-binding domain (pMM5) and Gal4 activation domain (pMM6) fusions in strain SGY37-VIII,3 (lexA-op-LacZ); drops on agar plates overlaid with soft agar, blue colour read; also done in bfa1Δ and bud14Δ backgrounds
[1] = molecular target: T1, Bfa1 (S. cerevisiae (budding yeast))
[2] = molecular target: T2, Bud14-F379A (S. cerevisiae (budding yeast))
[3] = molecular target: T3, Bud14 (S. cerevisiae (budding yeast))

binding [1]	binding [2]	binding [3]	Binder
binds	binds	–	Cdc14 (enzyme, UniProt Q00684 1-551) MRRSVYLDNTIEFLRGRVYLGAYDYTPEDTDELVFFTVEDAIFYNSFHLDFGPMNIGHLYRFAVIFHEILNDPENANKAVVFYSSASTRQRANAACMLCCYMILVQAWTPHQVLQPLAQVDPPFMPFRDAGYSNADFEITIQDVVYGVWRAKEKGLIDLHSFNLESYEKYEHVEFGDFNVLTPDFIAFASPQEDHPKGYLATKSSHLNQPFKSVLNFFANNNVQLVVRLNSHLYNKKHFEDIGIQHLDLIFEDGTCPDLSIVKNFVGAAETIIKRGGKIAVHCKAGLGRTGCLIGAHLIYTYGFTANECIGFLRFIRPGMVVGPQQHWLYLHQNDFREWKYTTRISLKPSEAIGGLYPLISLEEYRLQKKKLKDDKRVAQNNIEGELRDLTMTPPSNGHGALSARNSSQPSTANNGSNSFKSSAVPQTSPGQPRKGQNGSNTIEDINNNRNPTSHANRKVVIESNNSDDESMQDTNGTSNHYPKVSRKKNDISSASSSRMEDNEPSATNINNAADDTILRQLLPKNRRVTSGRRTTSAAGGIRKISGSIKK
–	–	binds	Cdc14-C283S (enzyme, UniProt Q00684 1-551) MRRSVYLDNTIEFLRGRVYLGAYDYTPEDTDELVFFTVEDAIFYNSFHLDFGPMNIGHLYRFAVIFHEILNDPENANKAVVFYSSASTRQRANAACMLCCYMILVQAWTPHQVLQPLAQVDPPFMPFRDAGYSNADFEITIQDVVYGVWRAKEKGLIDLHSFNLESYEKYEHVEFGDFNVLTPDFIAFASPQEDHPKGYLATKSSHLNQPFKSVLNFFANNNVQLVVRLNSHLYNKKHFEDIGIQHLDLIFEDGTCPDLSIVKNFVGAAETIIKRGGKIAVHSKAGLGRTGCLIGAHLIYTYGFTANECIGFLRFIRPGMVVGPQQHWLYLHQNDFREWKYTTRISLKPSEAIGGLYPLISLEEYRLQKKKLKDDKRVAQNNIEGELRDLTMTPPSNGHGALSARNSSQPSTANNGSNSFKSSAVPQTSPGQPRKGQNGSNTIEDINNNRNPTSHANRKVVIESNNSDDESMQDTNGTSNHYPKVSRKKNDISSASSSRMEDNEPSATNINNAADDTILRQLLPKNRRVTSGRRTTSAAGGIRKISGSIKK
